Most values lie at the floor of the assay. Slopes are relative: functional sequences can read slightly below zero.

This series has as its system Saccharomyces cerevisiae PS128 hsf1 delta, HSF1(1-493) fusion. The series is described as follows: growth estimate (transactivation domain function in HSF1 fusion, heat-shock survival) (a.u. (slope of normalised read count over time)); higher = stronger growth at 37°C, i.e. more transactivation activity. The following applies: library: random library. As for the experimental part:
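Random 60-nt DNA library encoding peptides of up to 20 aa, fused to the C-terminus of yeast HSF1 residues 1-493 (C-terminal TAD deleted) and expressed from the native HSF1 promoter on a CEN plasmid in hsf1-deleted S. cerevisiae PS128. Cells were selected at 37°C on -trp 5-FOA plates for 0, 2, 4, 6 and 8 days and amplicons were sequenced. Growth estimate is the slope of a robust linear fit of total-sum-normalised read counts (normalised to the first time point) over time, using at least 2 replicates. Sequences are classed functional (TAD activity) above a threshold of -0.13, set from stop-codon control sequences.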
As to WLCEGSCASCITRANLARVP, the growth estimate is less than -0.25.
Regarding PIDIREAVRIVKQVAFLNIS, the growth estimate was less than -0.25.
For the substance EFGDRGNLETITFQGCVRTK, the growth estimate was less than -0.25.
To VLVGGLVRDTAFMGAHTCIL belongs less than -0.25; to KRTVRSPHARADHWM, less than -0.25; to DFRIFPGSSSARRLLLNDAI, less than -0.25.
As for CDYFQAWRRQSVRNAHRTPL, the growth estimate is less than -0.25.
To VGGVKARLAQTQGSQLSGLD belongs less than -0.25; to GPASR, less than -0.25.
With FASQDFAPPLQTILFNLQRR, the growth estimate was less than -0.25.
As for RCDATGALIRKTLRRTAWE, the growth estimate was less than -0.25.
GEQYQELTLKVSLHGISAAI: the growth estimate was less than -0.25.
For the substance FAFGVLFPHP, the growth estimate was less than -0.25.
Regarding LLLPLDSF, the growth estimate is -0.228.
Regarding LSRLFLDWTCTTV, the growth estimate is less than -0.25.
Take KRTMRTGTSEVWWVWLSATG: the growth estimate was less than -0.25.
For SSIDRVFILQIVILRGHIDL, the growth estimate is less than -0.25.
Regarding VVA, the growth estimate was less than -0.25.
With APTV, the growth estimate is less than -0.25.
For HLLFY, the growth estimate is less than -0.25.
Take SIRHRPSSRVCWSKRGSMLY: the growth estimate is less than -0.25.
Consider ASDEYGLLGPGTAGRSQDTA, for which the growth estimate was less than -0.25.
With VWRLGSHKRARIGYHYAGPI, the growth estimate was -0.201.
On to MDGTIRAVLRYTLRGWNSTE, for which the growth estimate is less than -0.25.
For the substance RVQPVGPKSSPCILAPGWVC, the growth estimate is less than -0.25.
With GSVTHHVSRKATWIREAFMR, the growth estimate was less than -0.25.
ADRTVN: the growth estimate was less than -0.25.
Turning to RLYRTDPTGGCIAEYLLRKR, the growth estimate is less than -0.25.
To VRGRTRPLTGY belongs less than -0.25.
Turning to KNTPRTTPVLLIRRPKSPPI, the growth estimate was less than -0.25.
With GIIETRLHVVHVAP, the growth estimate was less than -0.25.
With EPKLLIDTVVSRMKSTKPRL, the growth estimate was less than -0.25.
As for HRYLLASGGSPEKASQGVLR, the growth estimate was less than -0.25.
Take WRSHWGKGTSHWGRITSIFL: the growth estimate is less than -0.25.
For ILCLSIPRPKGGLEGAYAIV the value was less than -0.25; for RSTVNIPR, less than -0.25.
FQSVNWLVTLLELIMTGNSI: the growth estimate was less than -0.25.
For AHCRTDVRAHLVCFTRSK, the growth estimate is less than -0.25.
Regarding YIAEGNKVPVHKPGTELQIL, the growth estimate is less than -0.25.
Turning to LQRGPGH, the growth estimate was less than -0.25.
In the case of LSCYLWIVRSSALRFLHNLV, the growth estimate is less than -0.25.
In the case of VRISTLSLQRSLNNAVP, the growth estimate is less than -0.25.
Regarding NEFLVKPE, the growth estimate was less than -0.25.
Turning to SERQRTGARG, the growth estimate is less than -0.25.
As for SQNGTGHCTSGGSRPLRCAA, the growth estimate is less than -0.25.
Turning to VHGNDPAA, the growth estimate was less than -0.25.
For GSEVAR the value was less than -0.25; for KRLAGVAYASGSLSDTTIPG, less than -0.25.
With RPMSLAIRRV, the growth estimate was -0.147.
As to RFGGGTKFAAS, the growth estimate is less than -0.25.
As for VQRRGARYSTLSNGGNGVAG, the growth estimate is less than -0.25.
On to RRCRTS, for which the growth estimate is less than -0.25.
For WGKAAAGASIRKDKRWG the value was less than -0.25; for GLLHAKRLTLRHAGILIGAS, less than -0.25.
Consider SKGSAWLIREALRTRPLPVG, for which the growth estimate was less than -0.25.
As to TRIMFDSGDYLIPVKPYAQR, the growth estimate is less than -0.25.
As for RETADQPCSPECYI, the growth estimate was less than -0.25.
To YCPRI belongs -0.17; to SGQEGQPLKLSAEHKSRRVS, less than -0.25; to GLIEAAGRQWENTDCETVMR, less than -0.25.
As to FRETH, the growth estimate was less than -0.25.
As to LVLLTHARLILRPATSGYSE, the growth estimate is less than -0.25.
RSPAGCILCRVVFQP: the growth estimate is less than -0.25.
To GGLHGPIKLIRKSVGKS belongs less than -0.25; to AGIQTSSRSVRPFLLGASFL, less than -0.25; to SAPGWMGSGREGLLPSGRGT, less than -0.25.
Take SLSLDGAEGCMRC: the growth estimate is less than -0.25.
In the case of RVEGIVERSL, the growth estimate is less than -0.25.
On to LMNHRVTLFKGFKSG, for which the growth estimate is less than -0.25.
Take QVDV: the growth estimate was less than -0.25.
For the substance TDVDGGKWHWGGVAPTWR, the growth estimate was less than -0.25.
For VGVYCVDASVFVAQP the value was less than -0.25; for RDYQCRVFPLGETYSTLNLE, less than -0.25; for LRVVVIGSSKCASCNLIVIA, -0.25.
For the substance MCGVDTSRAVTRTADGAVV, the growth estimate is less than -0.25.
For GEFSSIAFMLWREVVTGTAY the value was less than -0.25; for FYFRVHGRTRRAQLRGRARA, less than -0.25; for ANGGRTDS, less than -0.25.
Regarding TKAP, the growth estimate is less than -0.25.
In the case of KTYQE, the growth estimate was less than -0.25.
Regarding DLRRMQTVGQSWAHAFGTWL, the growth estimate is -0.246.
Take DRAQKNDVPWDGQRGWT: the growth estimate is less than -0.25.
For RVELRR the value was less than -0.25.
On to SERLPASLDCRKLPGKKASH, for which the growth estimate is less than -0.25.
For the substance AAGVIR, the growth estimate is less than -0.25.
Regarding LVINARCGWGTFYSDWWSQV, the growth estimate is less than -0.25.
As for NRVEEGRRKP, the growth estimate is less than -0.25.
As to PEHRQWWHRRGLSLERYADR, the growth estimate is less than -0.25.
Regarding LGTSLARCLCVCMERKEKGP, the growth estimate was less than -0.25.
Turning to GLYRIFYTISDALDRLSYHH, the growth estimate was less than -0.25.
For the substance PRN, the growth estimate was less than -0.25.
With GEWVPRGAWHSNCLAHSSLI, the growth estimate is less than -0.25.
As to RWVREFLVRPC, the growth estimate was less than -0.25.
Regarding NKRVCAAFDRWGAVCFLS, the growth estimate was less than -0.25.
HLDGHGCRDPCLLSTNKSPL: the growth estimate is less than -0.25.
Take SQPGHRVEPYALARYTGSSH: the growth estimate was less than -0.25.
For the substance SRQAR, the growth estimate is less than -0.25.
In the case of PVCSFLRLLFSLNMGRLTSG, the growth estimate is less than -0.25.
As to QGGTLANGLFGITFTSNSGR, the growth estimate was less than -0.25.
To DGNLFRKGES belongs less than -0.25; to LSPDQPWGGRSVYHA, less than -0.25; to AWSA, less than -0.25.
For SKQGSESARTFSYVV, the growth estimate is less than -0.25.
For GTSFQDFTSRVHVVCVGRCG the value was less than -0.25; for RYKNIDNSKQSTYIMSCRAR, less than -0.25.
Take RNYPKTNDHTYIGPVRDSPL: the growth estimate is less than -0.25.
On to NARHKLVSPFGSNIV, for which the growth estimate was less than -0.25.
To QYE belongs less than -0.25.
RRLELPVGSQGRYCMRWPTR: the growth estimate is less than -0.25.
To GWKSFNPETGAPSKSLETRG belongs less than -0.25.
For RKSQLGSQS the value was less than -0.25; for KPGVQEQCTATFWMSMGRHM, less than -0.25.
To HIYGCRF belongs less than -0.25.

The values above are taken from the supplement of paper PMC5949888.
